This assay deals with BE(2)C cells. Description: Antiproliferative effect of [PEG-SN38-BG]8 on BE(2)C with/without vorinostat or entinostat. The class given is cell-based, human. The following applies: vorinostat alone, 1-5 μM. As to the method:
FIG. 13: Evaluation of the potentiating effect of vorinostat on the antiproliferative activities of [PEG-SN38-BG]8 and SN-38 ((A) and (B), respectively) in chemoresistant NB cells, BE(2)C. In accordance with vorinostat-induced NET expression reported to peak at 6 hr, an exposure period of 6 hr was chosen for the present experiment. BE(2)C cells were incubated with [PEG-SN38-BG]8 or SN-38 at concentrations equivalent to 25-100 nM of SN-38, with/without vorinostat (1.25-5.0 μM). Cell growth was measured by bioluminescence. BE(2)C cell survival data at 6 days post treatment were analyzed for hyperadditivity by applying a model z=z0+A·x+B·y+C·[x·y] and determining the significance of the interaction term C.
FIG. 14: Antiproliferative effect of [PEG-SN38-BG]8 prodrug on NET-expressing, chemoresistant NB cells, BE(2)C. The effect on cell growth kinetics was studied in comparison to free SN-38 or bipartite [PEG-SN38]8 lacking functionalization with BG (A). Cells were exposed for 4 hr to equivalent concentrations of the compounds, corresponding to 125 nM of SN-38. […] Cell growth was monitored by bioluminescence. […] Experimental data were analyzed for hyperadditivity using a model z=z0+A·x+B·y+C·[x·y] and determining the significance of the interaction term C. […]

For `O=C(CCCCCCC(=O)Nc1ccccc1)NO` [vorinostat], the “own BE(2)C cell growth inhibitory effect” value is listed as “only moderate”.

Source of the values: patent US12311028B2, “Polymer-based macromolecular prodrugs” (The Children's Hospital of Philadelphia, priority 2018, dated 2025).
